In PubChem BioAssay AID493014 (National Center for Advancing Translational Sciences (NCATS), 2011) one finds AC50 data, which are given here for 66 molecules.

Some of the results follow. Further columns of the screen follow, without active or inactive calls. Compounds called inactive in the main read-out are mostly missing here. Potencies come from curve fits of mixed quality, noted in brackets.

This assay is described as follows: qHTS Assay to Find Inhibitors of Chronic Active B-Cell Receptor Signaling. The conditions noted are these: ABC-DLBCL IkBa-CBG/CBR reporter, luminescence ratio (green luciferase fused to IkBa over red control in TMD8 lymphoma cells), 4 h. The method in brief: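 Compounds up to 46 uM were incubated four hours with TMD8 cells whose green CBG68 luciferase is fused to IkappaBalpha; red CBR luminescence normalised the signal, and concentration-effect curves were fitted to fusion, red and ratio data.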

Setting [1] is: measured here: CBR red luminescence, cell number.
Setting [2] is: measured here: IkBa-CBG green luminescence.

A word on the AC50: it is the concentration giving half of the maximal activity seen. As to `Cc1cccc(N2C(=O)CC(SC(=Nc3ccccc3)Nc3ccccc3)C2=O)c1` (stereo not given), the half-maximal activity concentration (AC50) is, setting by setting: under setting [1], 29.1 µM [falling, single point]; under setting [2], 23.1 µM [rising, partial curve, poor fit].
As to `O=C1OC(c2ccc(F)cc2)=C/C1=C\c1ccc(O)cc1`, the AC50 under setting [1] was 2.82 µM [falling, full curve, poor fit].
As to `CSc1sc(C)cc1/C=N/O`, under setting [1], the AC50 is 7.31 µM [rising, partial curve].
Still for that read-out and setting: to `C/C(=N\NC(=O)COc1ccc(C)cc1Br)c1cc([N+](=O)[O-])cs1` belongs 35.5 µM [rising, single point]; to `c1csc(-c2nc(N3CCCCC3)no2)c1`, 7.94 µM [rising, partial curve, poor fit]; to `CCSc1nnc(NC(=O)c2nc(-c3ccccc3)n(-c3ccccc3)n2)s1`, 20 µM [rising, single point].
In the case of `C/C(=N\Nc1cc(N2CCCCC2)nc(C)n1)c1ccc(Br)cc1`, the half-maximal activity concentration (AC50) under setting [1] is 6.31 µM [rising, single point].
Still for that read-out and setting: the same measure for `COc1ccc2[nH]cc(CCNC(=O)Nc3ccccc3C)c2c1`: 7.08 µM [falling, partial curve, poor fit]; for `Cc1ccc(C(=O)OCc2nnc(-c3ccccc3)o2)s1`: 29.1 µM [rising, single point].
As for `Cc1cccc(NC(=O)C(C)Oc2ccc(C)nc2[N+](=O)[O-])c1` (stereo not given), the AC50 under setting [1] was 16.4 µM [rising, partial curve].
As to `CCOC(=O)Cc1csc(NC(=S)NC(=O)c2ccccc2)n1`, under setting [2], the AC50 was 29.1 µM [falling, partial curve, poor fit].
As for `OCCCCNCc1ccc(OCc2ccc(Cl)cc2)cc1`, the AC50 under setting [1] is 35.5 µM [falling, single point].
As for `Cc1c(C(=O)N2CCOCC2)[nH]c2c1C(=O)CC(c1ccc(Cl)cc1)C2` (stereo not given), under setting [1], the half-maximal activity concentration (AC50) is 8.91 µM [falling, partial curve, poor fit].
Take `CN(C(=O)COc1ccccc1C(=O)NCCOc1ccccc1)c1ccccc1`: under setting [1], the concentration at half-maximal activity (AC50) was 16.4 µM [falling, single point].
As to `Cc1ccc(COc2ccccc2C(=S)N2CCCC2)cc1`, under setting [1], the AC50 was 35.5 µM [rising, single point].
With `Cc1ccc(N(C(=O)c2ccc(S(=O)(=O)N3CCOCC3)cc2)C2C=CS(=O)(=O)C2)cc1` (stereo not given), the concentration at half-maximal activity (AC50) under setting [1] is 1.16 µM [falling, full curve, poor fit].
The same measure, in the same setting: the same measure for `O=C(OCc1cc([N+](=O)[O-])cc2c1OCOC2)c1ccccn1`: 31.6 µM [rising, single point].
With `Cc1cccc(C)c1-n1c(C)cc(/C=N/NC(N)=S)c1C`, the AC50 under setting [2] was 32.6 µM [falling, partial curve, poor fit].
`N#Cc1c(Cn2cncn2)nc(=O)n(-c2ccc(Cl)cc2)c1N`: under setting [1], the AC50 was 8.91 µM [rising, partial curve].
Regarding `CCCS(=O)(=O)n1nc(-c2ccc(C)cc2)cc1N`, the AC50 under setting [1] is 29.1 µM [rising, single point].
Turning to `O=C(CCl)N1CCN(C(=O)C2COc3ccccc3O2)CC1` (stereo not given), the concentration at half-maximal activity (AC50) under setting [1] was 18.4 µM [falling, single point].
As for `Cc1ccc(NC(=O)c2cc(-c3ccc4c(c3)OCO4)on2)cc1`, under setting [1], the half-maximal activity concentration (AC50) is 20 µM [falling, partial curve, poor fit].
In the case of `Cc1cc(Cl)ccc1OCCCC(=O)N1CCCc2ccccc21`, under setting [1], the concentration at half-maximal activity (AC50) was 2.06 µM [rising, partial curve, poor fit].
For `O=C(COC(=O)c1ccccc1NC(=O)c1ccco1)NCCC1=CCCCC1`, the AC50 under setting [1] was 25.9 µM [falling, single point].
Regarding `CCS(=O)(=O)CCSc1nc2c(cc1C#N)CCCC2`, under setting [1], the AC50 was 23.1 µM [falling, single point].
`CCN1CCCC1CNC(=O)c1ccc2c(=O)n(CCOC)c(=O)[nH]c2c1` (stereo not given): the AC50 under setting [1] was 3.55 µM [falling, partial curve, poor fit].
As for `O=C(CCl)Nc1ccccc1C(=O)Nc1ccc2c(c1)OCO2`, under setting [1], the AC50 was 12.6 µM [falling, single point].
On to `CC(C)(C)c1ccc(C(=O)N2CCN(CCNC(=O)C(=O)Nc3ccc(F)cc3)CC2)cc1`, for which, under setting [1], the concentration at half-maximal activity (AC50) is 1.12 µM [falling, full curve].
In the case of `O=C(N/N=C/c1cc2c(cc1[N+](=O)[O-])OCO2)c1cccnc1`, the AC50 under setting [1] is 3.16 µM [rising, single point].
On the same count and under the same terms, to `COc1ccc(-c2csc(C)n2)cc1Br` belongs 25.1 µM [rising, single point]; to `CC1=C(C)/C(=N\OS(=O)(=O)c2ccccc2)C=CC1=O`, 29.1 µM [falling, single point].
`CCCCCN(C(=O)CCC(=O)OCc1cc(C(C)=O)ccc1OC)c1c(N)n(CCCC)c(=O)[nH]c1=O`: the half-maximal activity concentration (AC50) under setting [1] was 16.4 µM [rising, single point].
In the case of `Cn1c(CNc2ccccc2O)nc2ccccc21`, the concentration at half-maximal activity (AC50) under setting [1] was 8.91 µM [falling, partial curve].
On to `COc1ccc(N(CC(=O)N/N=C/c2ccccc2OC)S(=O)(=O)c2ccccc2)cc1`, for which the concentration at half-maximal activity (AC50) under setting [1] is 6.31 µM [falling, single point] and the AC50 under setting [2] was 3.98 µM [rising, single point].
On to `O=C(Nc1nnc(SCc2cccc3ccccc23)s1)C1COc2ccccc2O1` (stereo not given), for which, under setting [1], the AC50 was 5.17 µM [rising, partial curve].
In the case of `C=CCn1c(=O)[nH]c2cc(C(=O)N3CCN(c4cccc(Cl)c4)CC3)ccc2c1=O`, under setting [1], the concentration at half-maximal activity (AC50) is 10 µM [falling, partial curve, poor fit].
On the same count and under the same terms, to `O=C(c1cc(-c2ccccc2)nc2ccccc12)N1CCN(c2ccccc2O)CC1` belongs 22.4 µM [falling, single point]; to `CN1/C(=C\C(=O)CSc2cccc[n+]2[O-])C(C)(C)c2ccccc21`, 6.31 µM [falling, single point].
`COc1ccc(CNCc2cc3c(C(C)(C)C)nn(-c4ccccc4)c3[nH]c2=O)cc1`: under setting [1], the AC50 was 29.1 µM [falling, single point].
In the case of `CCC1CCCCN1C(=O)CSc1nc2c(c(=O)n(C)c(=O)n2C)n1C` (stereo not given), under setting [1], the concentration at half-maximal activity (AC50) is 3.16 µM [falling, partial curve, poor fit].
The same measure, in the same setting: to `Cn1nc(C(=O)OCC(=O)c2ccccc2)c2ccccc2c1=O` belongs 1.64 µM [rising, full curve, poor fit]; to `O=C(Nc1ncn[nH]1)c1c(Cl)ccc(Cl)c1Cl`, 29.1 µM [falling, single point]; to `O=C(NCCO)c1cccc(S(=O)(=O)N2CCCCC2)c1`, 11.2 µM [rising, partial curve].
For `COc1ccc(N2CC(C)(C)C2=O)cc1`, the AC50 under setting [1] is 35.5 µM [rising, single point].
On to `Cc1cc(C(=O)N/N=C/c2c(C)nn(-c3ccccc3)c2C)n[nH]1`, for which the AC50 under setting [1] was 0.355 µM [rising, full curve, poor fit].
Consider `COc1ccc(C(=O)C(CN2CCCC2)c2ccccc2)cc1` (stereo not given), for which the half-maximal activity concentration (AC50) under setting [1] was 15.8 µM [falling, partial curve].
For `COC(=O)c1sccc1NC(=O)Nc1cc(C)cc(C)c1`, the AC50 under setting [1] was 0.562 µM [falling, full curve].
Same read-out and setting: to `O=C(CSc1cc(Cl)ccc1Cl)NCC1CCCO1` (stereo not given) belongs 29.1 µM [rising, single point]; to `COc1cc(NC(=O)c2cc(C)nc3ccccc23)cc(OC)c1OC`, 3.16 µM [rising, partial curve, poor fit]; to `O=C(NC(=S)Nc1ccccc1O)c1ccccc1Cl`, 1.26 µM [falling, full curve, poor fit].
Turning to `CCOC(=O)C(CC)Sc1nc2c(cnn2-c2ccc(F)cc2)c(=O)[nH]1` (stereo not given), under setting [1], the AC50 was 15.8 µM [rising, single point].
Consider `CN(Cc1ccccn1)Cc1nc(-c2ccc(Cl)cc2)no1`, for which the half-maximal activity concentration (AC50) is 35.5 µM [falling, single point] under setting [1] and 17.8 µM [rising, single point] under setting [2].
Take `O=[N+]([O-])c1ccc(CCn2ccnc2)cc1`: the concentration at half-maximal activity (AC50) under setting [1] is 0.447 µM [rising, full curve, poor fit].
Take `O=C(NCCc1cn2ccccc2n1)c1cc(COc2c(F)cccc2F)on1`: under setting [1], the half-maximal activity concentration (AC50) was 1.12 µM [falling, full curve].
In the case of `COc1ccc(S(=O)(=O)N2CCCCCC2)cc1C(=O)Nc1ccc(C)cn1`, under setting [1], the AC50 is 29.1 µM [falling, single point].
As to `CCCS(=O)(=O)N1CCCC(C(=O)NC(C)c2ccc3c(c2)OCCO3)C1` (stereo not given), under setting [1], the concentration at half-maximal activity (AC50) was 23.1 µM [rising, single point].
For `CN(C)c1ccc(C(=S)NCc2ccco2)cc1`, under setting [1], the AC50 is 0.82 µM [falling, full curve].
As for `O=C(CNCc1cccs1)Nc1ccc(OC(F)(F)F)cc1`, under setting [1], the AC50 is 1 µM [rising, full curve].
Same read-out and setting: the same measure for `CC(C)(C)C1CCc2c(sc3ncn(N)c(=N)c23)C1` (stereo not given): 7.08 µM [rising, full curve, poor fit].
With `CCCc1c2ccccc2nc2ccccc12`, the AC50 was 0.00461 µM [falling, full curve, poor fit] under setting [1] and 25.9 µM [rising, partial curve, poor fit] under setting [2].
In the case of `COCCn1nnnc1CN1CCC(C)CC1`, the AC50 under setting [1] was 29.1 µM [rising, single point].
Turning to `COc1ccc(-c2cc(C(F)F)n3ncc(C(=O)N4CCN(C)CC4)c3n2)cc1`, the half-maximal activity concentration (AC50) under setting [1] was 32.6 µM [rising, single point].
In the case of `CNc1snc(C)c1C(=O)OCC(=O)c1ccc(OC)c(F)c1`, under setting [1], the AC50 was 0.58 µM [rising, full curve, poor fit].
Take `Cc1ccc(S(=O)(=O)Nc2ccc(C(=O)Nc3cc(C)on3)cc2)cc1`: under setting [1], the half-maximal activity concentration (AC50) was 0.164 µM [falling, full curve, poor fit].
Same read-out and setting: the same measure for `O=C(N=Nc1c(O)[nH]c2ccccc12)c1cccs1`: 1.41 µM [falling, full curve]; for `CN(C)C(CNC(=O)Nc1cccc(Cl)c1)c1cccnc1` (stereo not given): 13 µM [rising, single point].
